Test results taken from the supplement of paper PMC8426693.
The other results are listed elsewhere or left out.

The molecules below were run on SARS-CoV-2 5_SL8 RNA (assay: NMR binding call after quantification (hit when 2 of 3 NMR criteria are met) (binary (1 = binding, 0 = not binding)); higher = binding). Conditions: RNA concentration 10 µM; fragment concentration 200 µM; 293 K.
`CNCc1ccncc1` showed an NMR binding call of 0.
For `CNS(=O)(=O)c1cccc(C)c1F`, the NMR binding call was 0.
For `CC1CCN(C(=O)CCCc2ccccc2)CC1`, the NMR binding call was 0.
`CC(N)C(=O)Nc1cc(C(F)(F)F)n[nH]1.Cl` (stereo not given) gave an NMR binding call of 0.
Molecule `Oc1ncc(NC2CCCCC2)c(O)n1` has an NMR binding call of 0.
Molecule `CN1CCN(C(=O)C2CCCO2)CC1` (stereo not given) has an NMR binding call of 0.
`Cc1c(Cl)cccc1NC(=O)CN.Cl` was tested, and the NMR binding call was 0.
For `CCOc1ccc(C(=O)Nc2cc(C)on2)cc1`, the NMR binding call was 0.
`O=C(NCCN1CCCC1=O)Nc1ccccc1` showed an NMR binding call of 0.
`CC(Oc1ccc(Cl)cc1)C(N)=O` (stereo not given) showed an NMR binding call of 0.
`CCOC(=O)c1sc(-c2cnccn2)nc1C` showed an NMR binding call of 0.
Work on `NC(=O)C1CCC(F)(F)CC1` yielded an NMR binding call of 0.
Molecule `CCOC(=O)c1sc(N(C)C(C)=O)nc1C` has an NMR binding call of 0.
Molecule `O=C(COc1ccccc1)N1CCCC1` has an NMR binding call of 0.
`Fc1ccc(Cn2cnc3ccccc32)cc1` gave an NMR binding call of 0.
`Cc1ccc(S(=O)(=O)N(C)CCC#N)cc1` showed an NMR binding call of 0.
Work on `CC(=O)Nc1cccc(NC(N)=O)c1` yielded an NMR binding call of 0.
For `Cc1nn(C)c(C)c1CN1CCNCC1`, the NMR binding call was 0.
In the case of `N#CCN1CCN(c2cccc(Cl)c2)CC1`, the NMR binding call is reported as 0.
Molecule `Cc1noc(C(N)C(C)C)n1` (stereo not given) has an NMR binding call of 0.
For `NC(=O)c1ccc(NC(=O)C2CCCO2)cc1` (stereo not given), the NMR binding call was 0.
In the case of `CN(C)C(=O)c1ccc(F)cc1Br`, the NMR binding call is reported as 0.
For `O=C(O)c1ccccc1OC(F)(F)F`, the NMR binding call was 0.
With `Cl.Cl.O=C(c1ccncc1)N1CCNCC1` the NMR binding call was 0.
For `Cl.Cn1cc(C(N)=O)c(C2CCCNC2)n1` (stereo not given), the NMR binding call was 0.
With `C1CCC(NCC2CCCO2)C1` (stereo not given) the NMR binding call was 0.
In the case of `Cn1c(CNC2CCCCC2)nc2ccccc21`, the NMR binding call is reported as 0.
`O=C(c1c(F)cccc1F)N1CCCCCC1` showed an NMR binding call of 0.
`CCOc1ncccc1C(N)=O` was tested, and the NMR binding call was 0.
`NCc1ccc(-c2cccs2)cc1` showed an NMR binding call of 0.
Molecule `Cc1nnc(N2CCCCC2)s1` has an NMR binding call of 0.
`CCNC(=O)CN1CC(C)OCC1C` (stereo not given) was tested, and the NMR binding call was 0.
Molecule `CN1CCN(C(=O)CO)CC1` has an NMR binding call of 0.
Work on `CC(C)c1nccn1CC(=O)O` yielded an NMR binding call of 0.
For `CC1CCC(C(=O)N2CCC=C(F)C2)O1` (stereo not given), the NMR binding call was 0.
`Cc1cc2ncn(CC(N)=O)c2cc1C` gave an NMR binding call of 0.
In the case of `CC1=NN(c2ccccc2)C(=O)C1`, the NMR binding call is reported as 0.
`CC(=O)Nc1ccc(N2CCN(C)CC2)cc1` was tested, and the NMR binding call was 0.
`CCOc1ccccc1N1CCNCC1.Cl` was tested, and the NMR binding call was 0.
For `CC(C)NC(=O)c1cc[nH]n1`, the NMR binding call was 0.

What follows are molecules tested on SARS-CoV-2 attenuator hairpin (att HP) RNA in the same assay as above. Conditions: RNA concentration 10 µM; fragment concentration 200 µM; 293 K.
For `CNCc1ccncc1`, the NMR binding call was 0.
`CNS(=O)(=O)c1cccc(C)c1F` was tested, and the NMR binding call was 0.
In the case of `CC1CCN(C(=O)CCCc2ccccc2)CC1`, the NMR binding call is reported as 0.
In the case of `CC(N)C(=O)Nc1cc(C(F)(F)F)n[nH]1.Cl` (stereo not given), the NMR binding call is reported as 0.
`Oc1ncc(NC2CCCCC2)c(O)n1` was tested, and the NMR binding call was 0.
Molecule `CN1CCN(C(=O)C2CCCO2)CC1` (stereo not given) has an NMR binding call of 0.
`Cc1c(Cl)cccc1NC(=O)CN.Cl` was tested, and the NMR binding call was 0.
With `CCOc1ccc(C(=O)Nc2cc(C)on2)cc1` the NMR binding call was 0.
`O=C(NCCN1CCCC1=O)Nc1ccccc1` showed an NMR binding call of 0.
`CC(Oc1ccc(Cl)cc1)C(N)=O` (stereo not given) gave an NMR binding call of 0.
`CCOC(=O)c1sc(-c2cnccn2)nc1C` showed an NMR binding call of 0.
`NC(=O)C1CCC(F)(F)CC1` gave an NMR binding call of 0.
`CCOC(=O)c1sc(N(C)C(C)=O)nc1C` was tested, and the NMR binding call was 0.
Molecule `O=C(COc1ccccc1)N1CCCC1` has an NMR binding call of 0.
`Fc1ccc(Cn2cnc3ccccc32)cc1` gave an NMR binding call of 0.
`Cc1ccc(S(=O)(=O)N(C)CCC#N)cc1` was tested, and the NMR binding call was 0.
`CC(=O)Nc1cccc(NC(N)=O)c1` gave an NMR binding call of 0.
`Cc1nn(C)c(C)c1CN1CCNCC1` was tested, and the NMR binding call was 0.
With `N#CCN1CCN(c2cccc(Cl)c2)CC1` the NMR binding call was 0.
Molecule `Cc1noc(C(N)C(C)C)n1` (stereo not given) has an NMR binding call of 0.
`NC(=O)c1ccc(NC(=O)C2CCCO2)cc1` (stereo not given) showed an NMR binding call of 0.
Molecule `CN(C)C(=O)c1ccc(F)cc1Br` has an NMR binding call of 0.
`O=C(O)c1ccccc1OC(F)(F)F` was tested, and the NMR binding call was 0.
Work on `Cl.Cl.O=C(c1ccncc1)N1CCNCC1` yielded an NMR binding call of 0.
For `Cl.Cn1cc(C(N)=O)c(C2CCCNC2)n1` (stereo not given), the NMR binding call was 0.
With `C1CCC(NCC2CCCO2)C1` (stereo not given) the NMR binding call was 0.
Molecule `Cn1c(CNC2CCCCC2)nc2ccccc21` has an NMR binding call of 0.
Molecule `O=C(c1c(F)cccc1F)N1CCCCCC1` has an NMR binding call of 0.
For `CCOc1ncccc1C(N)=O`, the NMR binding call was 0.
Molecule `NCc1ccc(-c2cccs2)cc1` has an NMR binding call of 0.
Molecule `Cc1nnc(N2CCCCC2)s1` has an NMR binding call of 0.
With `CCNC(=O)CN1CC(C)OCC1C` (stereo not given) the NMR binding call was 0.
`CN1CCN(C(=O)CO)CC1` gave an NMR binding call of 0.
Work on `CC(C)c1nccn1CC(=O)O` yielded an NMR binding call of 0.
Work on `CC1CCC(C(=O)N2CCC=C(F)C2)O1` (stereo not given) yielded an NMR binding call of 0.
In the case of `Cc1cc2ncn(CC(N)=O)c2cc1C`, the NMR binding call is reported as 0.
For `CC1=NN(c2ccccc2)C(=O)C1`, the NMR binding call was 0.
Work on `CC(=O)Nc1ccc(N2CCN(C)CC2)cc1` yielded an NMR binding call of 0.
With `CCOc1ccccc1N1CCNCC1.Cl` the NMR binding call was 0.
For `CC(C)NC(=O)c1cc[nH]n1`, the NMR binding call was 0.

Each molecule was assayed on SARS-CoV-2 frameshift pseudoknot (PK) RNA in the same assay as above. Conditions: RNA concentration 10 µM; fragment concentration 200 µM; 293 K.
With `CNCc1ccncc1` the NMR binding call was 0.
Molecule `CNS(=O)(=O)c1cccc(C)c1F` has an NMR binding call of 0.
For `CC1CCN(C(=O)CCCc2ccccc2)CC1`, the NMR binding call was 0.
`CC(N)C(=O)Nc1cc(C(F)(F)F)n[nH]1.Cl` (stereo not given) showed an NMR binding call of 0.
In the case of `Oc1ncc(NC2CCCCC2)c(O)n1`, the NMR binding call is reported as 0.
For `CN1CCN(C(=O)C2CCCO2)CC1` (stereo not given), the NMR binding call was 0.
With `Cc1c(Cl)cccc1NC(=O)CN.Cl` the NMR binding call was 0.
For `CCOc1ccc(C(=O)Nc2cc(C)on2)cc1`, the NMR binding call was 0.
`O=C(NCCN1CCCC1=O)Nc1ccccc1` showed an NMR binding call of 0.
`CC(Oc1ccc(Cl)cc1)C(N)=O` (stereo not given) gave an NMR binding call of 0.
Molecule `CCOC(=O)c1sc(-c2cnccn2)nc1C` has an NMR binding call of 0.
`NC(=O)C1CCC(F)(F)CC1` showed an NMR binding call of 0.
For `CCOC(=O)c1sc(N(C)C(C)=O)nc1C`, the NMR binding call was 0.
Work on `O=C(COc1ccccc1)N1CCCC1` yielded an NMR binding call of 0.
With `Fc1ccc(Cn2cnc3ccccc32)cc1` the NMR binding call was 0.
`Cc1ccc(S(=O)(=O)N(C)CCC#N)cc1` was tested, and the NMR binding call was 0.
With `CC(=O)Nc1cccc(NC(N)=O)c1` the NMR binding call was 0.
`Cc1nn(C)c(C)c1CN1CCNCC1` was tested, and the NMR binding call was 0.
Molecule `N#CCN1CCN(c2cccc(Cl)c2)CC1` has an NMR binding call of 0.
With `Cc1noc(C(N)C(C)C)n1` (stereo not given) the NMR binding call was 0.
In the case of `NC(=O)c1ccc(NC(=O)C2CCCO2)cc1` (stereo not given), the NMR binding call is reported as 0.
`CN(C)C(=O)c1ccc(F)cc1Br` showed an NMR binding call of 0.
For `O=C(O)c1ccccc1OC(F)(F)F`, the NMR binding call was 0.
`Cl.Cl.O=C(c1ccncc1)N1CCNCC1` showed an NMR binding call of 0.
Molecule `Cl.Cn1cc(C(N)=O)c(C2CCCNC2)n1` (stereo not given) has an NMR binding call of 0.
`C1CCC(NCC2CCCO2)C1` (stereo not given) gave an NMR binding call of 0.
With `Cn1c(CNC2CCCCC2)nc2ccccc21` the NMR binding call was 0.
With `O=C(c1c(F)cccc1F)N1CCCCCC1` the NMR binding call was 0.
In the case of `CCOc1ncccc1C(N)=O`, the NMR binding call is reported as 0.
In the case of `NCc1ccc(-c2cccs2)cc1`, the NMR binding call is reported as 0.
For `Cc1nnc(N2CCCCC2)s1`, the NMR binding call was 0.
In the case of `CCNC(=O)CN1CC(C)OCC1C` (stereo not given), the NMR binding call is reported as 0.
With `CN1CCN(C(=O)CO)CC1` the NMR binding call was 0.
In the case of `CC(C)c1nccn1CC(=O)O`, the NMR binding call is reported as 0.
Work on `CC1CCC(C(=O)N2CCC=C(F)C2)O1` (stereo not given) yielded an NMR binding call of 0.
Molecule `Cc1cc2ncn(CC(N)=O)c2cc1C` has an NMR binding call of 0.
With `CC1=NN(c2ccccc2)C(=O)C1` the NMR binding call was 0.
With `CC(=O)Nc1ccc(N2CCN(C)CC2)cc1` the NMR binding call was 0.
`CCOc1ccccc1N1CCNCC1.Cl` showed an NMR binding call of 0.
In the case of `CC(C)NC(=O)c1cc[nH]n1`, the NMR binding call is reported as 0.
